Data from publication PMC12713088, “Arabidopsis TRB Proteins Form Two Closely Related Complexes to Mediate H3K4me3 Demethylation and Transcriptional Repression” (Advanced Science, 2025).
Results are given in words; binding and its absence hold for the method and conditions named. For some of these results: Binding calls can cover weak binding; strength is not graded here. Tags and fused reporters may be left off the sequences shown.

T1: NAC050, yeast two-hybrid fusion (Arabidopsis thaliana) (UniProt Q9SQX9)
T1 sequence: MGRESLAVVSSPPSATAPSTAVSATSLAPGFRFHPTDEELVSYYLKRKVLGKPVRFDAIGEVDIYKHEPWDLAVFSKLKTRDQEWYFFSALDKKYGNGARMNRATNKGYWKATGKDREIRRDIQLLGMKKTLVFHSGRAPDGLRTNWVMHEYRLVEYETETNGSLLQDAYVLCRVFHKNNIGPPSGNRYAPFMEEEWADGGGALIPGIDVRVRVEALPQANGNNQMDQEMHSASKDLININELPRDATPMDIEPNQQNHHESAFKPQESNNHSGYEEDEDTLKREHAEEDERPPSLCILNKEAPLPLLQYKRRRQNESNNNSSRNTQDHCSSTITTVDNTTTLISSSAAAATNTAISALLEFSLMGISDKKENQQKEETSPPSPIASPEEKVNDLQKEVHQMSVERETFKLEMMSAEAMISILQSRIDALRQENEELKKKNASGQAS

T2: NAC052, yeast two-hybrid fusion (Arabidopsis thaliana) (UniProt Q9SQY0)
T2 sequence: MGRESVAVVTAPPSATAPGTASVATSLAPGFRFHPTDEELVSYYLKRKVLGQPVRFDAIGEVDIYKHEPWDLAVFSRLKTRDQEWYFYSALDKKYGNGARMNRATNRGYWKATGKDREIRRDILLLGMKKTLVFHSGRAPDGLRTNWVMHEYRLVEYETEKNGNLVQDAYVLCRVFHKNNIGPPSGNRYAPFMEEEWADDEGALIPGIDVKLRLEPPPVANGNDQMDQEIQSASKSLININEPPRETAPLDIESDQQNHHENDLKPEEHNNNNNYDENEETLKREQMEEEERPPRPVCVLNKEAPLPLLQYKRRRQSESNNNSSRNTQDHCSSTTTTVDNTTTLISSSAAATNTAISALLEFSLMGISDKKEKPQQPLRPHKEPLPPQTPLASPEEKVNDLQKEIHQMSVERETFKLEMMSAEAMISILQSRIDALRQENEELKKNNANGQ

T3: NAC050-MBP, recombinant (Arabidopsis thaliana) (UniProt Q9SQX9)
T3 sequence: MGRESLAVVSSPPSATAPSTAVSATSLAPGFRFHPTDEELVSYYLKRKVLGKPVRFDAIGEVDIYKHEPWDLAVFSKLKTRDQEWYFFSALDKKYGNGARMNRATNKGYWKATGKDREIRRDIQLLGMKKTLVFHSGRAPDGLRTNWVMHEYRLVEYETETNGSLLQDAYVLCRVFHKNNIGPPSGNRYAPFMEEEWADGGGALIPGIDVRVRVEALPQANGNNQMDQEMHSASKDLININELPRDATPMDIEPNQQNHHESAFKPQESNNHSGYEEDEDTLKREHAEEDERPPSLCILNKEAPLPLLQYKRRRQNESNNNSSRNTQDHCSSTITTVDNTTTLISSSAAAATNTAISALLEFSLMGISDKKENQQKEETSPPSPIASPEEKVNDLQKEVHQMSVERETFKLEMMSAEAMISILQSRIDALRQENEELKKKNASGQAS


Key:
[1] = target: T1, NAC050, yeast two-hybrid fusion (Arabidopsis thaliana); experiment: two-hybrid; pGADT7 and pGBKT7 fusions, strains AH109 and Y187 mated; growth on SD-LWH with 0 or 3 mM 3-AT
[2] = target: T2, NAC052, yeast two-hybrid fusion (Arabidopsis thaliana); experiment: as above
[3] = target: T3, NAC050-MBP, recombinant (Arabidopsis thaliana); experiment: SEC; purified proteins mixed in equivalent molar amounts, 4 °C overnight, Superose 6 10/300GL; fractions detected by immunoblotting (GST, FLAG, MBP, HIS); both purified
[4] = target: ZDP2, yeast two-hybrid fusion (Arabidopsis thaliana); experiment: two-hybrid; pGADT7 and pGBKT7 fusions, strains AH109 and Y187 mated; growth on SD-LWH with 0 or 3 mM 3-AT
[5] = target: HTH2, yeast two-hybrid fusion (Arabidopsis thaliana); experiment: as above
[6] = target: HTH3, yeast two-hybrid fusion (Arabidopsis thaliana); experiment: as above
[7] = target: HTH1, yeast two-hybrid fusion (Arabidopsis thaliana); experiment: as above
[8] = target: ZDP2-MBP, recombinant (gel filtration) (Arabidopsis thaliana); experiment: SEC; purified proteins mixed in equivalent molar amounts, 4 °C overnight, Superose 6 10/300GL; fractions detected by immunoblotting (GST, FLAG, MBP, HIS); both purified
[9] = target: HTH1-His, recombinant (gel filtration) (Arabidopsis thaliana); experiment: as above

Row | Molecule | binding [1] | binding [2] | binding [4] | binding [5] | binding [6] | binding [7] | other results
1 | HTH2, yeast two-hybrid fusion (Arabidopsis thaliana) | no binding | no binding | – | – | – | – | –
2 | HTH3, yeast two-hybrid fusion (Arabidopsis thaliana) | no binding | no binding | – | – | – | – | –
3 | ZDP2-MBP, recombinant (gel filtration) (Arabidopsis thaliana) | – | – | – | – | – | – | binding [3]: binds
4 | HTH1, yeast two-hybrid fusion (Arabidopsis thaliana) | no binding | no binding | – | – | – | – | –
5 | TRB1, yeast two-hybrid fusion (protein, UniProt Q8VWK4 1-300) MGAPKQKWTQEEESALKSGVIKHGPGKWRTILKDPEFSGVLYLRSNVDLKDKWRNMSVMANGWGSREKSRLAVKRTFSLPKQEENSLALTNSLQSDEENVDATSGLQVSSNPPPRRPNVRLDSLIMEAIATLKEPGGCNKTTIGAYIEDQYHAPPDFKRLLSTKLKYLTSCGKLVKVKRKYRIPNSTPLSSHRRKGLGVFGGKQRTSSLPSPKTDIDEVNFQTRSQIDTEIARMKSMNVHEAAAVAAQAVAEAEAAMAEAEEAAKEAEAAEAEAEAAQAFAEEASKTLKGRNICKMMIRA | – | – | binds | binds | binds | binds | –
6 | TRB2, yeast two-hybrid fusion (protein, UniProt Q9FJW5 1-299) MGAPKQKWTPEEEAALKAGVLKHGTGKWRTILSDTEFSLILKSRSNVDLKDKWRNISVTALWGSRKKAKLALKRTPPGTKQDDNNTALTIVALTNDDERAKPTSPGGSGGGSPRTCASKRSITSLDKIIFEAITNLRELRGSDRTSIFLYIEENFKTPPNMKRHVAVRLKHLSSNGTLVKIKHKYRFSSNFIPAGARQKAPQLFLEGNNKKDPTKPEENGANSLTKFRVDGELYMIKGMTAQEAAEAAARAVAEAEFAITEAEQAAKEAERAEAEAEAAQIFAKAAMKALKFRIRNHPW | – | – | binds | binds | binds | binds | –
7 | TRB3, yeast two-hybrid fusion (protein, UniProt Q9M2X3 1-295) MGAPKLKWTPEEETALKAGVLKHGTGKWRTILSDPVYSTILKSRSNVDLKDKWRNISVTALWGSRKKAKLALKRTPLSGSRQDDNATAITIVSLANGDVGGQQIDAPSPPAGSCEPPRPSTSVDKIILEAITSLKRPFGPDGKSILMYIEENFKMQPDMKRLVTSRLKYLTNVGTLVKKKHKYRISQNYMAEGEGQRSPQLLLEGNKENTPKPEENGVKNLTKSQVGGEVMIMGMTEKEAAAAAARAVAEAEFAMAEAEEAAREADKAEAEAEAAHIFAKAAMKAVKYRMHSQTR | – | – | binds | binds | binds | binds | –
8 | TRB1-His, recombinant (natural protein, Arabidopsis thaliana, UniProt Q8VWK4 1-300, looked up, TRB1, Arabidopsis thaliana, AT1G49950; full length in the vector pSMT3; pSMT3 is recalled to add an N-terminal His-SUMO; source: E. coli BL21, purified (His beads)) MGAPKQKWTQEEESALKSGVIKHGPGKWRTILKDPEFSGVLYLRSNVDLKDKWRNMSVMANGWGSREKSRLAVKRTFSLPKQEENSLALTNSLQSDEENVDATSGLQVSSNPPPRRPNVRLDSLIMEAIATLKEPGGCNKTTIGAYIEDQYHAPPDFKRLLSTKLKYLTSCGKLVKVKRKYRIPNSTPLSSHRRKGLGVFGGKQRTSSLPSPKTDIDEVNFQTRSQIDTEIARMKSMNVHEAAAVAAQAVAEAEAAMAEAEEAAKEAEAAEAEAEAAQAFAEEASKTLKGRNICKMMIRA | – | – | – | – | – | – | binding [8]: binds; binding [9]: binds
9 | ICU11-GST, recombinant (gel filtration) (protein, UniProt Q3ED68 1-397) MCNQTPLRSMALDSSGKQPEQQQQQQPRASSGNGEARLKLRRTPNEEHEPENYEDLPLDYSPSLFTSLERYLPEQLLNSTRIDKASFMRDLLLRYSPDTERVRVLRHKEYRDKIMSSYQRLHGEIYTLDPSSFFAPSFLGAFSRKSEPNFRSSMVESYPGIFTFEMFKPQFCEMLLAEVEHMEKWVYDSRSTIMRPNTMNNFGVVLDDFGFDSMLQKLVDDFISPIAQVLFPEVCGTSLDSHHGYIVEYGKDRDVDLGFHVDDSEVSLNVCLGKQFSGGELYFRGVRCDKHVNSDSTEKEVYDYSHVPGHAILHRGRHRHGARATTSGHRANLILWCRSSTFREMKNYQRDFSGWCGGCKLDKQRRQRDSINATKEILARKAAEKTLVELASKSCAE | – | – | – | – | – | – | binding [8]: binds
